Results as given in the supplement of paper PMC12889115.
The other results are listed elsewhere or left out. These are raw signals, not scaled to a control.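 First-pass screen: polymyxin B was added at a level that permeabilizes the Salmonella outer membrane while sparing the inner membrane. DMSO wells, with and without polymyxin B, defined maximum growth. Because plates differed from one another, each plate's data were ranked separately and the compounds with the lowest OD600 were carried forward as hits.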

System: Salmonella enterica serovar Typhimurium SL1344
Assay: bacterial growth OD600 after 18 h with compound and polymyxin B; higher = more bacterial growth (less inhibition)
Details: 50 µM, Mueller-Hinton broth

## COCCn1cc(C(=O)NCC2(c3ccccc3)CCCC2)c(=O)c(C(=O)N2CCCCC2)c1
Polymyxin B 0.75 µg/mL
  bacterial growth OD600: 0.8

## CCC(CC)C(=O)N1CCc2c(cnc(C)c2CNC(=O)c2ccoc2C)C1
Polymyxin B 0.75 µg/mL
  bacterial growth OD600: 0.797

## COc1ccccc1C(=O)N1CCC(CCC(=O)N2CCN(c3ccccc3)CC2)CC1
Polymyxin B 1 µg/mL
  bacterial growth OD600: 0.828

## COc1ccccc1Oc1ncccc1CNC(=O)CN1CCCCC1
Polymyxin B 0.75 µg/mL
  bacterial growth OD600: 0.961

## COC(=O)c1ccccc1C(=O)N1CCCC(CCC(=O)NCc2ccccc2Cl)C1 (stereo unspecified)
Polymyxin B 1 µg/mL
  bacterial growth OD600: 1.08

## O=C(Nc1ccccc1Oc1cccnc1)C1CCCN1CC1CC1 (stereo unspecified)
Polymyxin B 0.75 µg/mL
  bacterial growth OD600: 0.788

## COc1ccc(CNC(C)c2cnc(-c3ccncc3)nc2C)c(F)c1 (stereo unspecified)
Polymyxin B 0.75 µg/mL
  bacterial growth OD600: 0.818

## NC(=O)C1(C(=O)N2CCCC(CCc3ccccc3C(F)(F)F)C2)CC1 (stereo unspecified)
Polymyxin B 1 µg/mL
  bacterial growth OD600: 0.851

## Cc1ccccc1-c1cnc(-c2ccncc2)nc1C1CCCN(C(=O)/C=C/c2ccc(F)cc2)C1 (stereo unspecified)
Polymyxin B 0.75 µg/mL
  bacterial growth OD600: 0.006

## COc1cc(C)ccc1OCc1nc(C(=O)NC(C)C2CC2)co1 (stereo unspecified)
Polymyxin B 1 µg/mL
  bacterial growth OD600: 0.879

## CSc1nc(C(=O)N2CCc3c(cnc(C)c3CNC(=O)/C=C/c3ccccc3F)C2)cs1
Polymyxin B 0.75 µg/mL
  bacterial growth OD600: 0.507

## COc1cccc(-c2cc(CC3(O)CCN(CC4CCCCC4)CC3)on2)c1
Polymyxin B 1 µg/mL
  bacterial growth OD600: 0.929

## C=CCOc1ccccc1CN1CCOc2ccc(CN3CCC(O)(c4cccnc4)CC3)cc2C1
Polymyxin B 0.75 µg/mL
  bacterial growth OD600: 0.739

## CN(C)C(=O)c1ccc(N2CCC(NC3CCCc4ccccc43)CC2)cc1 (stereo unspecified)
Polymyxin B 0.75 µg/mL
  bacterial growth OD600: 0.827

## Cc1nnc(SCCNC(=O)C2CCN(c3nc(C)c4cc(C(C)C)ccc4n3)CC2)s1
Polymyxin B 0.75 µg/mL
  bacterial growth OD600: 0.641

## Cc1cc(CNC(=O)CCN2CCCO2)c2[nH]c(C)c(C)c2c1
Polymyxin B 1 µg/mL
  bacterial growth OD600: 0.902

## COC(=O)CCCC(=O)N1CCCC(CCc2cccc(F)c2)C1 (stereo unspecified)
Polymyxin B 0.75 µg/mL
  bacterial growth OD600: 0.625

## O=C(NCC1CCCCC1)c1cn(C2CC2)cc(C(=O)N2CCN(C3CCCC3)CC2)c1=O
Polymyxin B 0.75 µg/mL
  bacterial growth OD600: 0.897

## COCC(=O)Nc1cc(C(=O)N(C)Cc2cc(C)no2)cc2ncn(CCc3ccccc3)c12
Polymyxin B 0.75 µg/mL
  bacterial growth OD600: 0.716

## CC(C)(C)NC(=O)NCc1cccnc1Oc1ccccc1F
Polymyxin B 0.75 µg/mL
  bacterial growth OD600: 0.731

## COc1ccccc1C1CN(CCNC(=O)CCn2c(=O)[nH]c3ccccc32)Cc2ccccc2O1 (stereo unspecified)
Polymyxin B 0.75 µg/mL
  bacterial growth OD600: 0.942

## CSc1ccccc1OCc1cc(C(=O)N2CCN(Cc3nccn3C)CC2)no1
Polymyxin B 1 µg/mL
  bacterial growth OD600: 0.807

## CN(Cc1cccs1)C(=O)c1cc(NC(=O)CC2CCCC2)cc2nc(C3CCCO3)n(C)c12 (stereo unspecified)
Polymyxin B 0.75 µg/mL
  bacterial growth OD600: 0.714

## CCn1ccnc1CN(C)C(=O)CC(c1ccccc1)c1ccccc1Cl (stereo unspecified)
Polymyxin B 1 µg/mL
  bacterial growth OD600: 0.421

## COc1ccc(F)c(CN2CCCC3(CCN(C4CCSCC4)C3)C2=O)c1 (stereo unspecified)
Polymyxin B 1 µg/mL
  bacterial growth OD600: 0.829

## Cc1oc(-c2cccc(F)c2F)nc1CN(C)Cc1ccccc1C(F)(F)F
Polymyxin B 1 µg/mL
  bacterial growth OD600: 0.792

## COCc1ccc(C(=O)N2CCCC(CCc3ccccc3)C2)o1 (stereo unspecified)
Polymyxin B 0.75 µg/mL
  bacterial growth OD600: -0.002

## CC(C)c1nc2cc(C(=O)N3CCSCC3)ccc2o1
Polymyxin B 1 µg/mL
  bacterial growth OD600: 0.869

## Cc1nc(-c2ccncc2)ncc1C(C)NC(=O)c1ccsc1 (stereo unspecified)
Polymyxin B 1 µg/mL
  bacterial growth OD600: 0.906

## Cc1ccc(NC2CCCN(C(=O)CCC(=O)c3ccccc3)C2)cc1C (stereo unspecified)
Polymyxin B 1 µg/mL
  bacterial growth OD600: 0.716

## O=C(Nc1ccc(-n2cccn2)cc1)C1CCCN1C(=O)CCc1cccs1 (stereo unspecified)
Polymyxin B 0.75 µg/mL
  bacterial growth OD600: 0.808
